Consider 37 molecules from PubChem BioAssay AID2685 (National Center for Advancing Translational Sciences (NCATS), 2010).

This is one part of the list. Shown are side measurements of this screen, not its main read-out; they come without a call. Most of these compounds were active or inconclusive in the main read-out, so they are no random draw. The note in brackets gives the kind of curve behind each potency; many fits are weak.

For orientation: AC50 means the concentration giving half of the maximal activity seen. A low value points to greater potency.

The nature of the experiment: qHTS Assay for Lipid Storage Modulators in Drosophila S3 Cells.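 On cell number change: cells counted by Cell Tracker Red CMTPX staining in the red channel.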 The conditions noted are these: BODIPY lipid droplet fluorescence, 18-24 h; for cell number change: measured here: cell count max response, cells fed with added oleic acid. A digest of the protocol:
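Drosophila S3 cells loaded with oleic acid (400 uM, as added) and compounds at several concentrations; lipid droplets imaged by 488-nm laser-scanning cytometry, 500–530 nm intensity and object ratio to cell channel. Percent activity normalized to 20 uM Triacsin C.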
(qHTS replaces the single test concentration by a dilution series.)

Setting [1] is: measured here: lipid fluorescence (Fed channel) AC50, cells fed with added oleic acid.
[2] abbreviates: measured here: cell number channel AC50, cells fed with added oleic acid.

Turning to `C[C@]12C(=O)N(c3ccccc3)C(=O)N1[C@@H]1c3ccccc3OC[C@@H]1[C@H]2c1ccccc1`, the cell number change is 7.19%. Also, the AC50 under setting [1] was 9.2 µM [rising, partial curve, poor fit]. As to `O=C(c1cc(-c2ccc(F)cc2)on1)N1CCCCCC1`, the cell number change came out at 14%. Besides, the AC50 under setting [1] was 0.13 µM [falling, full curve, poor fit]. For the molecule `O=C(O)/C=C\C(=O)Nc1ccccc1N1CCN(c2ccccc2)CC1`, the cell number change was -3.87%. Also, under setting [1], the AC50 is 29.1 µM [rising, single point]. Regarding `CSc1ncccc1C(=O)OCc1ccccc1F`, the cell number change was -6.25%. The half-maximal activity concentration (AC50) under setting [2] was 6.51 µM [falling, single point]. Under setting [1], the AC50 was 6.51 µM [falling, single point].

`COc1ccc(NS(=O)(=O)c2ccc(NC(=S)NC(=O)C(C)C)cc2)cc1`: the cell number change stood at 3.52%. For `COC(=O)/C=C/C(=O)Nc1cccc(C(F)(F)F)c1`, the cell number change is -16.6%. The AC50 under setting [2] is 0.461 µM [falling, full curve, poor fit]. Further, under setting [1], the AC50 was 1.84 µM [falling, partial curve, poor fit]. Consider `CCc1cc(C(=O)N2CCN(C(=O)c3ccccc3)CC2)sc1C`, for which the cell number change is -6.83%. Besides, the AC50 under setting [1] is 0.00461 µM [rising, full curve, poor fit]. For `O=C(O)CCCn1cc(NC(=O)COc2cc(F)ccc2[N+](=O)[O-])cn1`, the cell number change was found to be 0.291%. Also, the AC50 under setting [1] is 18.4 µM [falling, single point]. Take `Cc1noc(C)c1C(=O)N1CCN(c2ncccn2)CC1`: the cell number change is -15.1%. The AC50 under setting [1] was 29.1 µM [falling, single point]. In the case of `O=C(OCc1nc2scc(-c3ccccc3)c2c(=O)[nH]1)c1cc(Cl)ccc1[N+](=O)[O-]`, the cell number change worked out at 7.17%. In addition, under setting [1], the AC50 is 0.92 µM [rising, partial curve]. With `CC(C)NC(=O)[C@H]1N2C(=O)c3ccccc3C2SC1(C)C` (stereo partly drawn), the cell number change was 30.8%. For the same molecule, the AC50 under setting [2] was 29.1 µM [rising, partial curve, poor fit]. Further, under setting [1], the AC50 was 29.1 µM [rising, partial curve, poor fit]. For the molecule `Cc1ccccc1OCC(=O)N/N=C/c1ccc(N(C)C)cc1`, the cell number change worked out at 34.6%. For `CC(C)NC(=O)NC(=O)COC(=O)C1CCCN1C(=O)c1cccs1` (stereo not drawn), the cell number change was -0.666%. The AC50 under setting [1] was 1.3 µM [falling, full curve, poor fit].

On to `CCOC(=O)c1c(C)[nH]c(C(=O)COC(=O)c2ccncc2)c1C`, for which the AC50 under setting [2] was 6.51 µM [falling, single point]. In the case of `CCOC(=O)c1sc2ccccc2c1NC(=O)c1coc2ccccc2c1=O`, the cell number change is -33.9%. Also, under setting [2], the AC50 is 20.6 µM [falling, single point]. The AC50 under setting [1] was 20.6 µM [falling, single point]. In the case of `Cc1ccc(S(=O)(=O)NCCC(=O)NCCSc2ccc(Br)cc2)cc1`, the cell number change came to 32.3%. Also, the AC50 under setting [2] is 5.8 µM [rising, full curve, poor fit]. The AC50 under setting [1] was 8.2 µM [rising, partial curve]. Consider `O=C(c1ccccc1)c1cc2ccccc2o1`, for which the cell number change is -1.1%. As for `O=C(NCC(c1ccco1)N1CCc2ccccc2C1)c1ccc(Cl)c([N+](=O)[O-])c1` (stereo not drawn), the AC50 under setting [1] was 6.51 µM [falling, single point]. Take `COc1ccc(NS(=O)(=O)c2cc(NC(=O)CC(C)(C)C)ccc2N2CCCC2)cc1`: the cell number change is -12.7%. Moreover, under setting [1], the AC50 was 0.164 µM [rising, partial curve, poor fit]. Consider `NS(=O)(=O)c1ccc(CCNC(=O)COC(=O)CN2C(=O)C3CCCCC3C2=O)cc1` (stereo not drawn), for which the cell number change is -36.8%. Further, the AC50 under setting [1] is 29.1 µM [falling, partial curve, poor fit]. For `O=C1c2ccccc2C(O)N1Cc1ccco1` (stereo not drawn), the cell number change stood at 8.82%. Besides, the AC50 under setting [1] is 2.91 µM [falling, full curve]. Take `CC(=O)Nc1ccc(NC(=O)C/C(C)=N/NC(=O)C(=O)Nc2ccc(C)c(Cl)c2)cc1`: the cell number change came out at 19.9%. On the same count and under the same terms, then `Cc1ccn2c(-c3csc(NCc4ccco4)n3)c(C)nc2c1`, with -26.2%. On to `COc1ccc2c(CC(=O)N3CCc4ccccc43)coc2c1`, for which the cell number change worked out at 80.2%. Moreover, the AC50 under setting [2] was 2.59 µM [rising, partial curve]. The half-maximal activity concentration (AC50) under setting [1] was 7.31 µM [rising, partial curve]. On to `Cn1cc(SCC(=O)Nc2ccc3c(c2)OCO3)c2ccccc21`, for which the cell number change was -15.8%. In the case of `Cc1nc(N)sc1C(=O)OCC(C)C`, the cell number change came to 104%. In addition, under setting [2], the AC50 is 0.82 µM [rising, full curve]. In addition, under setting [1], the AC50 is 0.82 µM [rising, full curve]. As for `O=C1c2ccccc2-c2c1cccc2C(=O)N1CCCCCC1`, the cell number change is -1.26%. Besides, under setting [1], the AC50 was 20.6 µM [falling, partial curve, poor fit]. With `Cc1cc(C)c(NC(=O)c2cccc(NC(=O)c3ccco3)c2)c(C)c1`, the cell number change was -73%. Besides, under setting [2], the AC50 is 6.51 µM [falling, partial curve]. In addition, under setting [1], the AC50 was 23.1 µM [falling, single point]. Consider `N/C(=N\OC(=O)CC1CCCCC1)c1ccccc1`, for which the cell number change was -5.8%. Moreover, the AC50 under setting [1] is 1.84 µM [falling, partial curve, poor fit]. As for `CCOc1cc(CNc2ncc(-c3ccc(OC)cc3)n2C)ccc1O`, the cell number change is 16.6%. As to `COc1ccc(N2CCN(C(CNC(=O)C(=O)NCc3ccc4c(c3)OCO4)c3ccco3)CC2)cc1` (stereo not drawn), the cell number change is 33%. Further, the concentration at half-maximal activity (AC50) under setting [2] is 16.4 µM [rising, single point]. Further, the AC50 under setting [1] is 0.517 µM [rising, full curve, poor fit]. `CCCC(C(=O)NCCC(C)C)N(Cc1ccccc1)C(=O)c1snc(C(N)=O)c1N` (stereo not drawn): under setting [1], the AC50 was 9.2 µM [falling, single point]. For the molecule `Cc1cc(C)n(CC(=O)N2CCCC(N3CCN(c4cccc(C(F)(F)F)c4)CC3)C2)n1` (stereo not drawn), the cell number change was determined as 29.9%. `COc1ccc(N(CC(=O)Nc2ccccc2OC)S(=O)(=O)c2ccccc2)cc1Cl`: the cell number change was -17.9%. The AC50 under setting [1] was 25.9 µM [falling, single point]. For the molecule `O=C1ON=C(c2cccc([N+](=O)[O-])c2)/C1=C/c1ccc(O)cc1`, the cell number change is -25.5%. The AC50 under setting [1] was 0.731 µM [falling, single point]. For `CCOc1ccccc1C(=O)OCC(=O)NCCNC(=O)COC(=O)c1ccccc1OCC`, the cell number change turned out to be 22.7%. For the same molecule, the AC50 under setting [1] is 29.1 µM [falling, single point]. For `Cc1ccc(C)c(S(=O)(=O)N2CCN(C(=O)c3ccc(OCc4c(C)noc4C)cc3)CC2)c1`, the cell number change was -42.3%. Also, under setting [2], the AC50 was 20.6 µM [falling, partial curve]. Also, the AC50 under setting [1] was 7.31 µM [falling, partial curve, poor fit].
